Four substances from US20040262585A1 (priority 2004, published 2004) can be followed below.

The data set in a line: general procedure: Fmoc solid-phase peptide synthesis; 1,4-diaminobutane trityl PS resin (1.5 mmol/g); TentaGel PAMAM and tris dendrimer resins; DIC/HOBt. The settings on record: whole synthesis; for isolated yield: scale of the general procedure 0.3 mmol, 0.33 mmol.
[1] abbreviates: from 1,4-diaminobutane trityl resin.

Some peptides are written in HELM: one residue between dots, names in brackets for other building blocks, links after the first $.

The substance “SO3Cy5-Tyr-Val-Ala-Asp-Ala-Pro-Val-Lys-diaminobutane peptide” came in with an isolated mass of 4.3 mg. Under setting [1], this substance registered an isolated yield of 74%.

The substance “PEPTIDE1{[FITC].A.[Lys(Boc)].L.A}|PEPTIDE2{[FITC].A.[Lys(Boc)].L.A}|CHEM1{[PAMAMcore]}$PEPTIDE1,CHEM1,5:R2-1:R1|PEPTIDE2,CHEM1,5:R2-1:R2$$$V2.0” came in with an isolated mass of 7.4 mg. Besides, the isolated yield (from TGT alcohol resin) is 9%.

With “FITC-Ala-Lys(Boc)-Leu-Ala-diaminobutane peptide”, the isolated mass worked out at 19.6 mg. The substance also gave an isolated yield under setting [1] of 54%.

For “SO3Cy5-Tyr-Val-Ala-Asp-Ala-Pro-Val-Lys-tris dendrimer peptide”, the isolated mass turned out to be 2.0 mg. Where the note is “from 1,4-diaminobutane resin”, this substance showed an isolated yield of 20%.
